Results reported in ChEMBL document CHEMBL4316593 (Eur J Med Chem, 2019).
Further values from the same series stand in other lists.

Columns and labels:
Format in all cases: cell-based
Settings in all cases: U-87MG ATCC
[1] = Inhibition of RTK/PI3K/AKT/mTOR signaling in human U87 cells assessed as down regulation of MAP1LC3B gene expression at cytotoxic IC50 measured after 48 hrs relative to control
[2] = Inhibition of RTK/PI3K/AKT/mTOR signaling in human U87 cells assessed as down regulation of TRIM68 gene expression at cytotoxic IC50 measured after 48 hrs relative to control
[3] = Inhibition of RTK/PI3K/AKT/mTOR signaling in human U87 cells assessed as down regulation of PSMB6 gene expression at cytotoxic IC50 measured after 48 hrs relative to control
[4] = Inhibition of RTK/PI3K/AKT/mTOR signaling in human U87 cells assessed as down regulation of INO80D gene expression at cytotoxic IC50 measured after 48 hrs relative to control
[5] = Inhibition of RTK/PI3K/AKT/mTOR signaling in human U87 cells assessed as down regulation of ARHGAP17 gene expression at cytotoxic IC50 measured after 48 hrs relative to control
[6] = Inhibition of RTK/PI3K/AKT/mTOR signaling in human U87 cells assessed as down regulation of DVL3 gene expression at cytotoxic IC50 measured after 48 hrs relative to control
[7] = Inhibition of RTK/PI3K/AKT/mTOR signaling in human U87 cells assessed as down regulation of POLR2A gene expression at cytotoxic IC50 measured after 48 hrs relative to control
[8] = Inhibition of RTK/PI3K/AKT/mTOR signaling in human U87 cells assessed as down regulation of PGM2 gene expression at cytotoxic IC50 measured after 48 hrs relative to control
[9] = Inhibition of RTK/PI3K/AKT/mTOR signaling in human U87 cells assessed as down regulation of RBBP5 gene expression at cytotoxic IC50 measured after 48 hrs relative to control
[10] = Inhibition of RTK/PI3K/AKT/mTOR signaling in human U87 cells assessed as down regulation of RBSN gene expression at cytotoxic IC50 measured after 48 hrs relative to control
[11] = Inhibition of RTK/PI3K/AKT/mTOR signaling in human U87 cells assessed as down regulation of AP1G1 gene expression at cytotoxic IC50 measured after 48 hrs relative to control
[12] = Inhibition of RTK/PI3K/AKT/mTOR signaling in human U87 cells assessed as down regulation of AK3 gene expression at cytotoxic IC50 measured after 48 hrs relative to control
[13] = Inhibition of RTK/PI3K/AKT/mTOR signaling in human U87 cells assessed as down regulation of UBR4 gene expression at cytotoxic IC50 measured after 48 hrs relative to control
[14] = Inhibition of RTK/PI3K/AKT/mTOR signaling in human U87 cells assessed as down regulation of ACTR2 gene expression at cytotoxic IC50 measured after 48 hrs relative to control
[15] = Inhibition of RTK/PI3K/AKT/mTOR signaling in human U87 cells assessed as down regulation of CCDC6 gene expression at cytotoxic IC50 measured after 48 hrs relative to control
[16] = Inhibition of RTK/PI3K/AKT/mTOR signaling in human U87 cells assessed as down regulation of CSE1L gene expression at cytotoxic IC50 measured after 48 hrs relative to control
[17] = Inhibition of RTK/PI3K/AKT/mTOR signaling in human U87 cells assessed as up regulation of SSTR5 gene expression at cytotoxic IC50 measured after 48 hrs relative to control
[18] = Inhibition of RTK/PI3K/AKT/mTOR signaling in human U87 cells assessed as up regulation of C2CD4C gene expression at cytotoxic IC50 measured after 48 hrs relative to control
[19] = Inhibition of RTK/PI3K/AKT/mTOR signaling in human U87 cells assessed as up regulation of chromosome 15 open reading frame 52 gene expression at cytotoxic IC50 measured after 48 hrs relative to control
[20] = Inhibition of RTK/PI3K/AKT/mTOR signaling in human U87 cells assessed as up regulation of hook microtubule tethering protein 2 gene expression at cytotoxic IC50 measured after 48 hrs relative to control
[21] = Inhibition of RTK/PI3K/AKT/mTOR signaling in human U87 cells assessed as up regulation of muscleblind like splicing regulator 2 gene expression at cytotoxic IC50 measured after 48 hrs relative to control
[22] = Inhibition of RTK/PI3K/AKT/mTOR signaling in human U87 cells assessed as up regulation of solute carrier family 12 member 8 gene expression at cytotoxic IC50 measured after 48 hrs relative to control
[23] = Inhibition of RTK/PI3K/AKT/mTOR signaling in human U87 cells assessed as up regulation of SH3 and multiple ankyrin repeat domains 2 gene expression at cytotoxic IC50 measured after 48 hrs relative to control
[24] = Inhibition of RTK/PI3K/AKT/mTOR signaling in human U87 cells assessed as up regulation of mir-100-let-7a-2 cluster host gene gene expression at cytotoxic IC50 measured after 48 hrs relative to control
[25] = Inhibition of RTK/PI3K/AKT/mTOR signaling in human U87 cells assessed as up regulation of beaded filament structural protein 1 gene expression at cytotoxic IC50 measured after 48 hrs relative to control
[26] = Inhibition of RTK/PI3K/AKT/mTOR signaling in human U87 cells assessed as up regulation of solute carrier family 38 member 1 gene expression at cytotoxic IC50 measured after 48 hrs relative to control
[27] = Inhibition of RTK/PI3K/AKT/mTOR signaling in human U87 cells assessed as up regulation of family with sequence similarity 210 member A gene expression at cytotoxic IC50 measured after 48 hrs relative to control
[28] = Inhibition of RTK/PI3K/AKT/mTOR signaling in human U87 cells assessed as up regulation of myeloid associated differentiation marker gene expression at cytotoxic IC50 measured after 48 hrs relative to control
[29] = Inhibition of RTK/PI3K/AKT/mTOR signaling in human U87 cells assessed as up regulation of lectin, mannose binding 1 gene expression at cytotoxic IC50 measured after 48 hrs relative to control
[30] = Inhibition of RTK/PI3K/AKT/mTOR signaling in human U87 cells assessed as up regulation of ZFP64 zinc finger protein gene expression at cytotoxic IC50 measured after 48 hrs relative to control
[31] = Inhibition of RTK/PI3K/AKT/mTOR signaling in human U87 cells assessed as up regulation of ribosome production factor 2 homolog gene expression at cytotoxic IC50 measured after 48 hrs relative to control
[32] = Inhibition of RTK/PI3K/AKT/mTOR signaling in human U87 cells assessed as up regulation of C1orf43 gene expression at cytotoxic IC50 measured after 48 hrs relative to control

With `CC(=O)C(=NNc1ccccc1C#N)C(C)=O` as the compound, how does the log2FC [1] read?
The log2FC was -1.27.

And the log2FC [2]?
The log2FC was -1.03.

What about the log2FC [3] of the same compound?
The log2FC was -0.998.

What about the log2FC [4] of the same compound?
The log2FC was -0.956.

And the log2FC [5]?
Its log2FC is -0.936.

And the log2FC [6]?
Its log2FC is -0.884.

And the log2FC [7]?
Its log2FC is -0.863.

What about the log2FC [8] of the same compound?
The log2FC was -0.768.

What about the log2FC [9] of the same compound?
Its log2FC is -0.765.

What about the log2FC [10] of the same compound?
The log2FC was -0.719.

What about the log2FC [11] of the same compound?
The log2FC was -0.588.

What about the log2FC [12] of the same compound?
The log2FC was -0.564.

What about the log2FC [13] of the same compound?
Its log2FC is -0.476.

And the log2FC [14]?
The log2FC was -0.436.

And the log2FC [15]?
The log2FC was -0.432.

What about the log2FC [16] of the same compound?
Its log2FC is -0.398.

And the log2FC [17]?
The log2FC was 2.64.

And the log2FC [18]?
Its log2FC is 1.95.

And the log2FC [19]?
The log2FC was 1.52.

And the log2FC [20]?
The log2FC was 1.44.

And the log2FC [21]?
Its log2FC is 1.4.

And the log2FC [22]?
The log2FC was 1.24.

And the log2FC [23]?
The log2FC was 1.24.

And the log2FC [24]?
Its log2FC is 1.23.

And the log2FC [25]?
The log2FC was 1.08.

What about the log2FC [26] of the same compound?
Its log2FC is 1.03.

And the log2FC [27]?
The log2FC was 1.01.

And the log2FC [28]?
The log2FC was 0.88.

What about the log2FC [29] of the same compound?
The log2FC was 0.84.

And the log2FC [30]?
Its log2FC is 0.774.

And the log2FC [31]?
The log2FC was 0.648.

What about the log2FC [32] of the same compound?
Its log2FC is 0.389.
